Measurements reported in patent publication US10343903B2, “Cationic polymer coated mesoporous silica nanoparticles and uses thereof” (The Regents of the University of California, priority 2010, dated 2019).
Some entries share one result that the patent states for a list of compounds. At least one compound was matched to its structure with a doubt left.

System: MSNP2 uptake (macropinocytosis) in Hela cells
Assay: Drug and temperature inhibition of MSNP2 uptake
Assay type: cell-based, human
Settings: 3 h pretreatment, 20 μg/mL FITC-labeled MSNP2 6 h

## C=C1[C@@H](C)[C@H]2[C@H](Cc3ccccc3)NC(=O)[C@]23[C@H](OC(C)=O)/C=C/[C@@](C)(O)C(=O)[C@@H](C)C/C=C/[C@H]3[C@@H]1O [cytochalasin D]
  decrease of MSNP2 uptake: > 50%
